Consider eight molecules from doi:10.1101/490318.

B1: PUM3 (protein, UniProt Q8BKS9 1-647)
chain: MEVKGKKKFTGKSPQTSQGKNKFHKNSESSSSKTFPRKAVKEGGPKVTSKNFEKGATKPGKKGVKQFKNKPQGGKGPKDKFQKANKFSKKRKFQPDGESDESGAKKPKWDDFKKKKKELKQSRQLSDKTNYDIVVRAKHIWESLRRKDCDKEKRVKLMSDLQKLIQGKIKTIAFAHDSTRVIQCFIQYGNEEQRKQAFQELQGDLVELSKAKYSRNIVKKFLMYGSKPQVAEIIRSFKGHVRKMLRHSEASAIVEYAYNDKAILEQRNMLTEELYGNTFQLYKSADHPTLDKVLELQPAKLELIMDEMKQILTPMAQKEAVIKHSLVHKVFLDFFTYAPPKPRSELIEAIREAVVYLAHTHDGARVAMHCLWHGTPKDRKVIVKTMKTYVEKVANGQYSHLVLLAAFDCIDDTKLVKQIIISEIISSLPSIVNDKYGRKVLLYLMSPRDPAHTVPELIELLQKGDGNAHSKKDTAIRRRELLESISPALLSYLQGHTQEVVLDKSACVLVSDMLGSATGDVQPAMDAIASLAAAELHPGGKDGELHVAEHPAGHLVLKWLLEQDKKMKESGKEGCFAKTLVERVGMKNLKSWASINRGAIILSSLLQSCDQEVVNKVKGGLKPLIPTLEKNKSSSRGIQTLLEKLTA
B2: Ddx27 (protein, UniProt Q921N6 1-760)
chain: MLAELGFIRTIGENDEVPVEPESDSGDEEEEGPIVLGRKQKALQKNRSADFNPDFVFTEKEGMYDGSWALADVMSQLKKKRAATTLDEKIEKVRKRRKAEDKEAKSGKVEEKEGQADSDLKGQENPGEDEAGSKDEDSETDYSSEDEEILTKADTLKVKEKKKKKKGQAAGGFFEDASEYDKSLSFQDMNLSRPLLKAITAMGFKQPTPIQKACIPVGLLGKDICACAATGTGKTAAFALPVLERLIYKPRQAAVTRVLVLVPTRELGIQVHSVTKQLAQFCSITTCLAVGGLDVKSQEAALRAAPDILIATPGRLIDHLHNCPSFHLSSIEVLILDEADRMLDEYFEEQMKEIIRMCSHHRQTMLFSATMTDEVKDLASVSLKNPVRIFVNSNTDVAPFLRQEFIRIRPNREGDREAIVAALLMRTFTDHVMLFTQTKKQAHRMHILLGLLGLQVGELHGNLSQTQRLEALRRFKDEQIDILVATDVAARGLDIEGVKTVINFTMPNTVKHYVHRVGRTARAGRAGRSVSLVGEEERKMLKEIVKAAKAPVKARILPQDVILKFRDKIEKLEKDVYAVLQLEAEEKEMQQSEAQIDTAQRLLAKGKETADQEPERSWFQTKEERKKEKIAKALQEFDLALRGKKKRKKFMKDAKKKGEMTAEERSQFEILKAQMFAERLAKRNRRTKRARAMPEDEPTGPAKKQKQQQKSVFDEELTNTSKKALKQYRAGPSFEERKQSGLPRQRRGNFKSKSRYKRKK
B3: BST2 (protein, UniProt Q8R2Q8 1-152)
chain: MAPSFYHYLPVPMDEMGGKQGWGSHRQWLGAAILVVLFGVTLVILTIYFAVTANSVACRDGLRAQAECRNTTHLLQRQLTRTQDSLLQAETQANSCNLTVVTLQESLEKKVSQALEQQARIKELENEVTKLNQELENLRIQKETSSTVQVNS
B4: PABP2 (protein, UniProt Q8CCS6 1-302)
chain: MAAAAAAAAAAGAAGGRGSGPGRRRHLVPGAGGEAGEGDPGGAGDYGNGLESEELEPGELLPEPEPEEEPPRPRAPPGAPGPGPGSGAPGSQEEEEEPGLVEADPGDGAIEDPELEAIKARVREMEEEAEKLKELQNEVEKQMNMSPPPGNAGPVIMSLEEKMEADARSIYVGNVDYGATAEELEAHFHGCGSVNRVTILCDKFSGHPKGFAYIEFSDKESVRTSLALDESLFRGRQIKVIPKRTNRPGISTTDRGFPRSRYRARTTNYNSSRSRFYSGFNSRPRGRIYRGRARATSWYSPY
B5: G3BP2 (protein, UniProt P97379 1-482)
chain: MVMEKPSPLLVGREFVRQYYTLLNKAPEYLHRFYGRNSSYVHGGVDASGKPQEAVYGQNDIHHKVLSLNFSECHTKIRHVDAHATLSDGVVVQVMGLLSNSGQPERKFMQTFVLAPEGSVPNKFYVHNDMFRYEDEVFGDSEPELDEESEDEVEEEQEDRQPSPEPVQENANSAYYDAHPVTNGIEEPLEESSHEPEPEPESETKTEELKPQVEEKHLEELEEKSATPPPAEPASLPQEPPKAFSWASVTSKNLPPSGTVSSSGIPPHVKAPVSQPRVDAKPEVQSQPPRVREQRPRERPGFPPRGPRPGRGDMEQNDSDNRRIIRYPDSHQLFVGNLPHDIDENELKEFFMSFGNVVELRINTKGVGGKLPNFGFVVFDDSEPVQRILIAKPIMFRGEVRLNVEEKKTRAARERETRGGGDDRRDIRRNDRGPGGPRGIVGGGMMRDRDGRGPPPRGGMTQKLGSGRGTGQMEGRFTGQRR
B6: eIF2Balpha (protein, UniProt Q99LC8 1-305)
chain: MEDGELIEYFKSQMKGDPKMASAVAAIQTLLEFLKRDKGETLQGLRANLTYAIKTLCGVDSSVAVSSGGELFLRFISLTSLEYSDYSKCKKIMIERGELFLRRISLSRNKIANLCHTFIKDGARILTHAYSRVVLRVLEEAVAAKKRFSVYITESQPDLSGKKMAKALSHLNVPVTVVLDAAVGYIMEKADLVIVGAEGVVENGGIINKIGTNQMAVCAKAQNKPFYVVAESFKFVRLFPLNQEDVPDKFKYKADTLKSVQTGQDLKEEHPWVDYTSPSLITLLFTDLGVLTPSAVSDELIKLYL
B7: ZC3HAV1 (protein, UniProt Q3UPF5 1-996)
chain: MTDPEVFCFITKILCAHGGRMTLEELLGEISLPEAQLYELLKAAGPDRFVLLETGDQAGITRSVVATTRARVCRRKYCQRPCDSLHLCKLNLLGRCHYAQSQRNLCKYSHDVLSEQNFQVLKNHELSGLNQEELAVLLVQSDPFFMPEICKSYKGEGRKQICGQPQPCERLHICEHFTRGNCSYLNCLRSHNLMDRKVLAIMREHGLSSDVVQNIQDICNNKHTRRNPPSMRAPHPHRRGGAHRDRSKSRDRFHHNSLEVLSTVSPLGSGPPSPDVTGCKDPLEDVSADVTQKFKYLGTQDRAQLSSVSSKAAGVRGPSQMRASQEFLEDGDPDGLFSRNRSDSSTSRTSAAGFPLVAAQRNEAGAMKMGMPSGHHVEVKGKNEDIDRVPFLNSYIDGVTMEEATVSGILGKRATDNGLEEMILSSNHQKSVAKTQDPQTAGRITDSGQDTAFLHSKYEENPAWPGTSTHNGPNGFSQIMDETPNVSKSSPTGFGIKSAVTGGKEAVYSGVQSLRSHVLAMPGETTTPVQGSNRLPPSPLSSSTSHRVAASGSPGKSSTHASVSPASEPSRMMMMMSDPAEYSLCYIVNPVSPRMDDHGLKEICLDHLYRGCQQVNCNKNHFHLPYRWQLFILPTWMDFQDMEYIERAYCDPQIEIIVIEKHRINFKKMTCDSYPIRRLSTPSFVEKTLNSVFTTKWLWYWRNELNEYTQYGHESPSHTSSEINSAYLESFFHSCPRGVLQFHAGSQNYELSFQGMIQTNIASKTQRHVVRRPVFVSSKDVEQKRRGPDHQPVMPQADALTLFSSPQRNASTVSSNEYEFIELNNQDEEYAKISEQFKASMKQFKIVTIKRIWNQKLWDTFERKKQKMKNKTEMFLFHAVGRIHMDYICKNNFEWILHGNREIRYGKGNYFTKEAMYSHKSCSYDSRGTVMFVARVLVGSVIEGNMTLSSPPALYDSCVDTRLNPSVFVIFRKEQIYPEYVIEYMELEKEKGCIIS
B8: eIF2Bepsilon (protein, UniProt Q8CHW4 1-717)
chain: MAATAAVPGAAAGRASKRGGGGSGGGGTQGAEEEPPPPLQAVLVADSFNRRFFPISKDQPRVLLPLANVALIDYTLEFLTATGVQETFVFCCWKAAQIKEHLQKSKWCHPTSPNVVRIITSELYRSLGDVLRDVDAKALVRSDFLLIYGDVISNINICRALEEHRLRRKLEKNVSVMTMVFKESSPSHPTRCHEDNVVMAVDSATNRVLHFQKTQGLRRFSFPLSLFQGSGDGVEIRYDLLDCHISICSPQVAQLFTDNFDYQTRDDFVRGILMNEEVLGNQIHLHVTTREYGARVSNLHMYSAVCADVIRRWVYPLTPEVNFTDSTTQSYTHSRHNIYRGPEVSLGHGSVLEENVLLGAGTVIGSNCSITNSVIGPNCHIGDNVVLDQAYLWQGVRVAAGAQIHQSLLCDRAEVKERVKLKPYCVLTSQVVVGPDITLPEGSVISLHPPDAEEDEDDGQFSDDSGADQEKEKVKLKGYNPAEVGLEGQGYLWKAEGVNSKEDEELRQSLWGLMIKTEEESETESEGSVDPEELDSRAGSPQLDDIRVFQNEVLGTLQRGREENISCENLVLEINSLKHAYNISLKEVMQVLTLVVLEFPLQQVDGLLDPNRYCALLLPLLKAWSPVLRNYIKRAADHLEALAAIEDFFLEHETLVTSMAKVLMAFYQLEILAEETILSWFSQRDTTDEGQQLRKNQQLQRFIQWLREAEEESSEDD

No constants are given. Whether binding was seen depends on the method and setting. In cells and extracts the contact can be indirect. Here binding means that the protein was enriched with, or labelled near, the bait; the list need not be complete.

This assay addresses GFP-tagged G3BP1 (Ras-GTPase activating SH3 domain binding protein 1). Put plainly: affinity purification with mass spectrometry.
With B1, the binding entry is given as “binds”.
As to B2, the binding entry is “binds”.
In the case of B3 it was “binds”.
B4: the binding result is “binds”.
The same measure for B5: “binds”.
In the case of B6 it was “binds”; in that of B7, “binds”.
For the molecule B8, the binding result was “binds”.
